Measured values published in PMC6764986.
These are yes or no findings as the source states them, for the method shown. Binding seen in cells or lysates may run through a third protein. Some results given as binding are weak or reduced against the parent protein; the word gives no strength. Where a sequence is shown, tags or fusion partners need not be part of it.

Target: T1, YfgM-ALFA (C-terminally ALFA-tagged YfgM) (E. coli) (UniProt P76576)
T1 sequence: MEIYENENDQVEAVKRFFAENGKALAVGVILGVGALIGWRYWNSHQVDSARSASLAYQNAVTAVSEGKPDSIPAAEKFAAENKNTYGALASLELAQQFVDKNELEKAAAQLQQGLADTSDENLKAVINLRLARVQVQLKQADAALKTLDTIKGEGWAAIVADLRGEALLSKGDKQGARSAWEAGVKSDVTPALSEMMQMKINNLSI
Test: co-IP; DDM-solubilized lysate of E. coli ΔyfgM expressing YfgM-ALFA, captured on ALFA Selector^PE, washed in PBS with 0.3% DDM, eluted with 200 µM ALFA peptide; Western blot with serum against the YfgM-PpiD complex

binding: binds
B1: PpiD (protein, UniProt P0ADY1 1-623)
chain: MMDSLRTAANSLVLKIIFGIIIVSFILTGVSGYLIGGGNNYAAKVNDQEISRGQFENAFNSERNRMQQQLGDQYSELAANEGYMKTLRQQVLNRLIDEALLDQYARELKLGISDEQVKQAIFATPAFQVDGKFDNSRYNGILNQMGMTADQYAQALRNQLTTQQLINGVAGTDFMLKGETDELAALVAQQRVVREATIDVNALAAKQPVTEQEIASYYEQNKNNFMTPEQFRVSYIKLDAATMQQPVSDADIQSYYDQHQDQFTQPQRTRYSIIQTKTEDEAKAVLDELNKGGDFAALAKEKSADIISARNGGDMGWLEDATIPDELKNAGLKEKGQLSGVIKSSVGFLIVRLDDIQPAKVKSLDEVRDDIAAKVKHEKALDAYYALQQKVSDAASNDTESLAGAEQAAGVKATQTGWFSKDNLPEELNFKPVADAIFNGGLVGENGAPGINSDIITVDGDRAFVLRISEHKPEAVKPLADVQEQVKALVQHNKAEQQAKVDAEKLLVDLKAGKGAEAMQAAGLKFGEPKTLSRSGRDPISQAAFALPLPAKDKPSYGMATDMQGNVVLLALDEVKQGSMPEDQKKAMVQGITQNNAQIVFEALMSNLRKEAKIKIGDALEQQ
